Measurements published in publication PMC8657813.
These are yes or no findings as the source states them, for the method shown. For some assays here: Binding seen in cells or lysates may run through a third protein. Some results given as binding are weak or reduced against the parent protein; the word gives no strength. Where a sequence is shown, tags or fusion partners need not be part of it.

Amino acid sequences for entries named in this document (tags omitted). Residues count along the entry.
UniProt Q9NZZ3, residues 149-219: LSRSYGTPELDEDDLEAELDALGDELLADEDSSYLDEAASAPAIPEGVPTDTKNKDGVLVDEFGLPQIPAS

Columns and labels:
[1] = molecular target: T1, GAL4-BROX fusion protein, wild type (pGBKT7) (human (from the GenBank entry NM_144695.3)) (UniProt Q5VW32); assay: two-hybrid; yeast Y190 co-transformed with pGBKT7 (GAL4-BROX) and pVP16/HA plasmids, 3 days at 30C; β-galactosidase activity with CPRG, A540 nm
T1 sequence: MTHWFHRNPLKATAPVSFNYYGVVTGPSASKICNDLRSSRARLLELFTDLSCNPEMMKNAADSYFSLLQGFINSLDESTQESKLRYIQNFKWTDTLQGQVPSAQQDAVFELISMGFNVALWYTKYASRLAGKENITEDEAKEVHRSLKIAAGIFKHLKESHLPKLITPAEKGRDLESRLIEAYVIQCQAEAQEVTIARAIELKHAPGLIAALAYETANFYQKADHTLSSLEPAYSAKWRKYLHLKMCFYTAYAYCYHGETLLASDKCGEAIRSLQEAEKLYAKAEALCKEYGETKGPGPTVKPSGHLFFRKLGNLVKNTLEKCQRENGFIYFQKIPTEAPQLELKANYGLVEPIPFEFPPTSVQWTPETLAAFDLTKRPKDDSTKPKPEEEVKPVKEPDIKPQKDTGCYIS

[2] = molecular target: T2, GAL4-BROX L350A (pGBKT7) (human (from the GenBank entry NM_144695.3)) (UniProt Q5VW32); assay: as above
T2 sequence: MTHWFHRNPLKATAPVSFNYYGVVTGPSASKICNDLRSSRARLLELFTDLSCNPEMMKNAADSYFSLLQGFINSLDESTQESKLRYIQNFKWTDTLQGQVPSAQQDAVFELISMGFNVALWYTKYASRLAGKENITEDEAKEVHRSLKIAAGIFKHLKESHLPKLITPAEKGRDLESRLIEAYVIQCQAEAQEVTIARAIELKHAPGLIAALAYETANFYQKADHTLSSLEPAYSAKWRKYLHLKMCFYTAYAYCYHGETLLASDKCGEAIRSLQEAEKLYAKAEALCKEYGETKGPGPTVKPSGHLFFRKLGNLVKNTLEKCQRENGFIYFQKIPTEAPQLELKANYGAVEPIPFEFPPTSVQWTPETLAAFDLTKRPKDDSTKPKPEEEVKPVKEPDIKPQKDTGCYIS

[3] = molecular target: T3, GAL4-BROX I354A (pGBKT7) (human (from the GenBank entry NM_144695.3)) (UniProt Q5VW32); assay: as above
T3 sequence: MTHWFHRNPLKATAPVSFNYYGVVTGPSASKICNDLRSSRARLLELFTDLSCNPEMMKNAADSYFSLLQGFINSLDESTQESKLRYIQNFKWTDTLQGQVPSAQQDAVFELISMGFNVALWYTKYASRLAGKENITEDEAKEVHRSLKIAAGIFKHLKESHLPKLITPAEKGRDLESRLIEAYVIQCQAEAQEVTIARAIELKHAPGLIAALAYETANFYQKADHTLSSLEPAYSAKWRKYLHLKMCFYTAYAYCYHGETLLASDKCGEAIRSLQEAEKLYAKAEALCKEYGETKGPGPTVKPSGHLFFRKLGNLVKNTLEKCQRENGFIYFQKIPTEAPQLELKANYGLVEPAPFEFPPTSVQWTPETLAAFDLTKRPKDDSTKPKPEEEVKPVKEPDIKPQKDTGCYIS

[4] = molecular target: T4, Recombinant GST-tagged BROX L350A (human (from the GenBank entry NM_144695.3)) (UniProt Q5VW32); assay: pull-down; recombinant GST-BROX proteins on glutathione sepharose 4B beads as bait; clarified lysates of 293T cells transfected with GFP constructs as preys (50 mM Tris pH 7.4, 150 mM NaCl, 5 mM EDTA, 5% glycerol, 1% Triton X-100), 3h at 4°C; eluates blotted with α-GFP; only the target purified
T4 sequence: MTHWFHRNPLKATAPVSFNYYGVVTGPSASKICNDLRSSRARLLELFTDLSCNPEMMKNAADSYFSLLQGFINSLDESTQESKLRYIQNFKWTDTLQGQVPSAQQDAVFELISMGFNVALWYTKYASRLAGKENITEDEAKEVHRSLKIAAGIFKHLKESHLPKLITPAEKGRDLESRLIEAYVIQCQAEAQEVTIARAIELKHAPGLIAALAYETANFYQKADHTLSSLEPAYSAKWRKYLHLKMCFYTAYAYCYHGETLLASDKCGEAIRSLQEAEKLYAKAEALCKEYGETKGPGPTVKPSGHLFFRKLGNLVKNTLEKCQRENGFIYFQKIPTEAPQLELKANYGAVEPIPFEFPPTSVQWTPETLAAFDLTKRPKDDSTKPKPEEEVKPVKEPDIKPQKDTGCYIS

[5] = molecular target: T5, Recombinant GST-tagged wild-type BROX (human (from the GenBank entry NM_144695.3)) (UniProt Q5VW32); assay: as above
T5 sequence: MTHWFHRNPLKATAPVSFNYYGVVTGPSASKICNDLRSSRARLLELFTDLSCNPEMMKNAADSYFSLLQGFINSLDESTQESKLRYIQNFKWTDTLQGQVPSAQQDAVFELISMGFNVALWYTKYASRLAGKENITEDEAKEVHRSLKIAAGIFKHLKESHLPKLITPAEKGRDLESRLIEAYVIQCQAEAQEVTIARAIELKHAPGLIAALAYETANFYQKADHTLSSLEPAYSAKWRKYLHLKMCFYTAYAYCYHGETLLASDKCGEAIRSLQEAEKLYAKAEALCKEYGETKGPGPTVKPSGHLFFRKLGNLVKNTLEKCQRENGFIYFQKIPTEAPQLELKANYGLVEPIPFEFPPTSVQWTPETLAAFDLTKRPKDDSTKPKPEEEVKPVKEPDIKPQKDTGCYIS

Molecule	binding [1]	binding [2]	binding [3]	binding [4]	binding [5]
C-terminal fragment of human CHMP5 (residues 149–219) fused to a VP16 activation domain and an HA tag (pVP16/HA) (from UniProt Q9NZZ3 149-219) (domain or fragment)	binds	binds	binds		
GFP-CHMP4B (protein, UniProt Q9H444 1-224) MSVFGKLFGAGGGKAGKGGPTPQEAIQRLRDTEEMLSKKQEFLEKKIEQELTAAKKHGTKNKRAALQALKRKKRYEKQLAQIDGTLSTIEFQREALENANTNTEVLKNMGYAAKAMKAAHDNMDIDKVDELMQDIADQQELAEEISTAISKPVGFGEEFDEDELMAELEELEQEELDKNLLEISGPETVPLPNVPSIALPSKPAKKKEEEDDDMKELENWAGSM				binds	binds
CHMP4B fused to a VP16 activation domain and an HA tag (pVP16/HA) (protein, UniProt Q9H444 1-224) MSVFGKLFGAGGGKAGKGGPTPQEAIQRLRDTEEMLSKKQEFLEKKIEQELTAAKKHGTKNKRAALQALKRKKRYEKQLAQIDGTLSTIEFQREALENANTNTEVLKNMGYAAKAMKAAHDNMDIDKVDELMQDIADQQELAEEISTAISKPVGFGEEFDEDELMAELEELEQEELDKNLLEISGPETVPLPNVPSIALPSKPAKKKEEEDDDMKELENWAGSM	binds	binds	binds		
